Assay results published in article PMC5741900.
Results are given in words; binding and its absence hold for the method and conditions named. Binding seen in cells or lysates may run through a third protein. Some results given as binding are weak or reduced against the parent protein; the word gives no strength. For some assays here: Where a sequence is shown, tags or fusion partners need not be part of it. One block for each molecule: values may come before it.

By UniProt entry, the sequences of proteins in these tests, tags left out.
UniProt Q9UER7: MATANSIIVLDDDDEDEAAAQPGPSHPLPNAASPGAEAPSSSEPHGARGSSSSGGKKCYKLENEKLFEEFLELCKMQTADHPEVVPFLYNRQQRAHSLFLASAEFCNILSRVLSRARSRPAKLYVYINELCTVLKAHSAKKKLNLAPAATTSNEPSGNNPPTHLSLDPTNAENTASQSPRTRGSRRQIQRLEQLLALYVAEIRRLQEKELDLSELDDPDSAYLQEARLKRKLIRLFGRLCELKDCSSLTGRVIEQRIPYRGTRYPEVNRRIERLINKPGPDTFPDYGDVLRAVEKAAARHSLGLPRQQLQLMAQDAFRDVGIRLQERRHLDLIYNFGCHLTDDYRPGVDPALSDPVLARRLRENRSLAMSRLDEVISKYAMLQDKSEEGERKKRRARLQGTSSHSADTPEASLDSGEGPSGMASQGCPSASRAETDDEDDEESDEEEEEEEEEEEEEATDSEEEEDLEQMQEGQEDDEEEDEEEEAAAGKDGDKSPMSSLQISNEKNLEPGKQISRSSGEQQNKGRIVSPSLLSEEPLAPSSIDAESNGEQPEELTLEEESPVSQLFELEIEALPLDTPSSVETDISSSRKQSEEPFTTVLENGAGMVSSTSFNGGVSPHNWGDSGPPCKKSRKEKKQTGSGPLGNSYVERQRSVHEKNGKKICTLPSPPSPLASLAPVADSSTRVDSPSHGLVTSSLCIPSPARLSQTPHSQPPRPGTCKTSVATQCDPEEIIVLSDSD

Experiments:
FLAG-HA-CENP-B = target: T1, FLAG-HA-CENP-B (UniProt P07199); assay: co-IP; anti-FLAG-M2 magnetic beads on the chromatin fraction of HEp2 cells stably expressing FLAG-HA-CENP-B; blot with Daxx and HA antibodies; also after scrambled, SUMO-1 or SUMO-2 siRNA and MG132 (10 µM, 4 h), densitometry relative to control siRNA
T1 sequence: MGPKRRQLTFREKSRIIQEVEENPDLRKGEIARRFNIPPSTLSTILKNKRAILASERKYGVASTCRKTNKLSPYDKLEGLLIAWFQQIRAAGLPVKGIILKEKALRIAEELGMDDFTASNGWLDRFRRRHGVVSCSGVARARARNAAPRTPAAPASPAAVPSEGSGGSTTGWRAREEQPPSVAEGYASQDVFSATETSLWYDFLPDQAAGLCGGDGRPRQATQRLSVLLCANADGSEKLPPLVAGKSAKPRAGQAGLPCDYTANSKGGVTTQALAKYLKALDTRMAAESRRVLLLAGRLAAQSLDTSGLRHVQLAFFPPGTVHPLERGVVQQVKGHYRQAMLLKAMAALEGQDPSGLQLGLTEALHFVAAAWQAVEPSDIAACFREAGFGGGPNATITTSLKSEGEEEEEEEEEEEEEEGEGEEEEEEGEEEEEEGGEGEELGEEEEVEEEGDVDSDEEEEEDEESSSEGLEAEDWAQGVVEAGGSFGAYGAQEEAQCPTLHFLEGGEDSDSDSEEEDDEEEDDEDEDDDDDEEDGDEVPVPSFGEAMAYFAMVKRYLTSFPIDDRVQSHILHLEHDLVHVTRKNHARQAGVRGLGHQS

FLAG-HA-Daxx = FLAG-HA-Daxx (UniProt Q9UER7); assay: co-IP; FLAG magnetic beads on the chromatin fraction (400 mM NaCl extract) of HEp2 cells stably expressing FLAG-HA-Daxx or FLAG-HA-DaxxΔSIM; washed six times with high salt buffer, eluted with FLAG peptide; blot with CREST and CENP-B antibodies

- binding (FLAG-HA-CENP-B): binds
Molecule: Daxx, endogenous (from UniProt Q9UER7 1-740)

- binding (FLAG-HA-Daxx): binds
B1: CENP-B (centromere protein B), endogenous (protein, UniProt P07199 1-599)
chain: T1 sequence
